No constants are given. Whether binding was seen depends on the method and setting. In cells and extracts the contact can be indirect. Some binding calls cover weakened binding; strength is not graded here. For some of these results: Tags and fused reporters may be left off the sequences shown.
Legend:
V5-tagged FOXA1 (human) = target: T1, V5-tagged FOXA1 (human) (UniProt P55317); test: co-IP; HEK293T cells transiently co-transfected with Myc-HIF1α and V5-FOXA1 for 48 h; IP with anti-Myc and blot with anti-V5, and reciprocal IP with anti-V5; IP lysis buffer with 150 mM NaCl, 1% NP-40; Dynabeads Protein G, 4 °C
T1 sequence: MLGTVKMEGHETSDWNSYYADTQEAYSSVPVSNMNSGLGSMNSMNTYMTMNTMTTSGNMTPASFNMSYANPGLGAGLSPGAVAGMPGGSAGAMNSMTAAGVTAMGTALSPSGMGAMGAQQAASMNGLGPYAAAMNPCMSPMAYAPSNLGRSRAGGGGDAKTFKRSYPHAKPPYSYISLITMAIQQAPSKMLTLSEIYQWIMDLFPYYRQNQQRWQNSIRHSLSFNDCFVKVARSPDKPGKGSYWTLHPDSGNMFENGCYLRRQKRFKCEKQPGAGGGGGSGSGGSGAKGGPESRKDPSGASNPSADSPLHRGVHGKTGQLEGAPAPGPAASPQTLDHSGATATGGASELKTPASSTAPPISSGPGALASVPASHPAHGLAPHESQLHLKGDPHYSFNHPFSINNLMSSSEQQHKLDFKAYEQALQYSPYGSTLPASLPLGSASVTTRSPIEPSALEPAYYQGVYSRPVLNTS

Protein sequences, listed by entry. Tags and fused reporters are not part of them.
UniProt Q16665: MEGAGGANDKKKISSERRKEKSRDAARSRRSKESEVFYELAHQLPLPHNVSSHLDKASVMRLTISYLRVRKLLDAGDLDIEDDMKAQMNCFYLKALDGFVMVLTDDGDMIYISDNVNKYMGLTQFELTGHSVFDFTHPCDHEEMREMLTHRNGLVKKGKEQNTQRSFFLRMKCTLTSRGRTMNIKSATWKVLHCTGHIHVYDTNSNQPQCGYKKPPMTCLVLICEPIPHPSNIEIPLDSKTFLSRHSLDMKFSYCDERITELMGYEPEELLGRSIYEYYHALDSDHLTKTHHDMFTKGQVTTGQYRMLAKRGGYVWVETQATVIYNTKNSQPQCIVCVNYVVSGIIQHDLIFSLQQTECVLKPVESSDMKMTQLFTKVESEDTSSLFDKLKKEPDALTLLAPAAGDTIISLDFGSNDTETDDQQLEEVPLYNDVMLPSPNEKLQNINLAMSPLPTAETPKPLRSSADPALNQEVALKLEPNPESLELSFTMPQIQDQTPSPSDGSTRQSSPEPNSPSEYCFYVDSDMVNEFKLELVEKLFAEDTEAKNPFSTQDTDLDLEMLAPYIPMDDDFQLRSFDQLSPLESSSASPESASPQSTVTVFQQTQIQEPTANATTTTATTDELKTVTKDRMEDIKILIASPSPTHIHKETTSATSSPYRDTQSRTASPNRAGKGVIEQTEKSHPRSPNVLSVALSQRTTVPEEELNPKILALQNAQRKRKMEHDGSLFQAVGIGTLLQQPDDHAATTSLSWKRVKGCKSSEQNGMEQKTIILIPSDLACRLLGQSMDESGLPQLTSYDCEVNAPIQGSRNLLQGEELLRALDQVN
UniProt Q96KS0: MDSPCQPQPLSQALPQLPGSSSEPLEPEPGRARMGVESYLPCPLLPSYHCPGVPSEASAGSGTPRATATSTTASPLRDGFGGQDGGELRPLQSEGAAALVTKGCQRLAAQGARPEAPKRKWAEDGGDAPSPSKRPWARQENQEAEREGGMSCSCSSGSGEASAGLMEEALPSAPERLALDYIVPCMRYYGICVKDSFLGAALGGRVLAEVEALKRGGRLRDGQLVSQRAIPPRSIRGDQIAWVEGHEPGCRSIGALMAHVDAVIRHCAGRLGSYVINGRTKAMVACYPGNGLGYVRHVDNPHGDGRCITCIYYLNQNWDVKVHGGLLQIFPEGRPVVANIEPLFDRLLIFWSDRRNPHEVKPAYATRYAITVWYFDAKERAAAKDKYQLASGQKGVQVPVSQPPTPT
UniProt Q9GZT9: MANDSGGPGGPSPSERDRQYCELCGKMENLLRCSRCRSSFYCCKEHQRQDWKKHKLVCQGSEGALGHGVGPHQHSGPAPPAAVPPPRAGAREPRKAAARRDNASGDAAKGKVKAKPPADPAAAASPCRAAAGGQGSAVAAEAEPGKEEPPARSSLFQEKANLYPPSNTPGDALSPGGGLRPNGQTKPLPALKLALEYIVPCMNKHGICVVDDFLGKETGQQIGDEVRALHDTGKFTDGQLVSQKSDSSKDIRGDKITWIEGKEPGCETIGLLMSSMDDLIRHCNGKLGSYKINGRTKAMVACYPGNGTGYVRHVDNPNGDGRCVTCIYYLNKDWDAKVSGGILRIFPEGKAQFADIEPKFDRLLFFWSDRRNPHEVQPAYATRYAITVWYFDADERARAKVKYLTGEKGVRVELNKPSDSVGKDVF

[1] = target: T2, endogenous FOXA1 (human (endogenous in LNCaP 1F5)) (UniProt P55317); test: co-IP; endogenous proteins in LNCaP 1F5 cells pre-treated with MG132; IP with anti-HIF1α or anti-FOXA1, western blot; also normoxia against hypoxia (1% O2, 24 h), interaction markedly enhanced under hypoxia
T2 sequence: T1 sequence

HA-tagged HIF1α = HA-tagged HIF1α (UniProt Q16665); test: co-IP; HEK293T cells co-expressing HA-HIF1α with V5-FOXA1 full length or truncation mutants (NTD, FH, CTD); precipitating antibody not told in the text (Figure S2C)
Myc-tagged HIF1α = Myc-tagged HIF1α (UniProt Q16665); test: co-IP; HEK293T cells transiently co-transfected with Myc-HIF1α and V5-FOXA1 for 48 h; IP with anti-Myc and blot with anti-V5, and reciprocal IP with anti-V5; IP lysis buffer with 150 mM NaCl, 1% NP-40; Dynabeads Protein G, 4 °C
[2] = target: endogenous HIF1α (human (endogenous in LNCaP 1F5)) (UniProt Q16665); test: co-IP; endogenous proteins in LNCaP 1F5 cells pre-treated with MG132; IP with anti-HIF1α or anti-FOXA1, western blot; also normoxia against hypoxia (1% O2, 24 h), interaction markedly enhanced under hypoxia
V5-tagged PHD1 = V5-tagged PHD1 (UniProt Q96KS0); test: co-IP; HEK293T cells co-transfected with Flag-FOXA1 and V5-PHD1, PHD2 or PHD3; IP with anti-V5, blot with anti-Flag
V5-tagged PHD2 = V5-tagged PHD2 (UniProt Q9GZT9); test: as above

Myc-tagged HIF1α (from UniProt Q16665 1-826)
binding (V5-tagged FOXA1 (human)): binds

endogenous HIF1α (from UniProt Q16665 1-826)
binding [1]: binds

B1: V5-tagged FOXA1 (protein, UniProt P55317 1-472)
chain: T1 sequence
binding (HA-tagged HIF1α): binds | binding (Myc-tagged HIF1α): binds

B2: endogenous FOXA1 (protein, UniProt P55317 1-472)
chain: T1 sequence
binding [2]: binds

B3: Flag-tagged FOXA1 (protein, UniProt P55317 1-472)
chain: T1 sequence
binding (V5-tagged PHD1): binds | binding (V5-tagged PHD2): no binding
